We go through one substance from patent US20180207269A1.

The chains behind the UniProt entries cited, without tags or fusion partners. Where a name states a change or a piece, a line headed by the entry shows the natural chain unless it says otherwise.
UniProt Q8NHJ6: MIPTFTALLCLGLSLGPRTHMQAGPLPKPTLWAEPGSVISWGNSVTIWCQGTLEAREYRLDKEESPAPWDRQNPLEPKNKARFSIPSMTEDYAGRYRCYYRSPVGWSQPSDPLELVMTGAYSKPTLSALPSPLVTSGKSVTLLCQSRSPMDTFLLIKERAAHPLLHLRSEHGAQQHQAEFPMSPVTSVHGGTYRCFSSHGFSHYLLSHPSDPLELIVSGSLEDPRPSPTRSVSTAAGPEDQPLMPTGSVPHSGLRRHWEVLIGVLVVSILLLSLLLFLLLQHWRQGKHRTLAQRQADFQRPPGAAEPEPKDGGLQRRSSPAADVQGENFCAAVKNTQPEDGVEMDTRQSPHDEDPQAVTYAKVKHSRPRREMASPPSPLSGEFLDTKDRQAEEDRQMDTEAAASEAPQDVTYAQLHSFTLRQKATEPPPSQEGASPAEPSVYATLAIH

Results are given in words; binding and its absence hold for the method and conditions named. Some results given as binding are weak or reduced against the parent protein; the word gives no strength.

The target of one assay is T1, human CD166Fc (human) (UniProt Q13740).
T1 sequence (looked up): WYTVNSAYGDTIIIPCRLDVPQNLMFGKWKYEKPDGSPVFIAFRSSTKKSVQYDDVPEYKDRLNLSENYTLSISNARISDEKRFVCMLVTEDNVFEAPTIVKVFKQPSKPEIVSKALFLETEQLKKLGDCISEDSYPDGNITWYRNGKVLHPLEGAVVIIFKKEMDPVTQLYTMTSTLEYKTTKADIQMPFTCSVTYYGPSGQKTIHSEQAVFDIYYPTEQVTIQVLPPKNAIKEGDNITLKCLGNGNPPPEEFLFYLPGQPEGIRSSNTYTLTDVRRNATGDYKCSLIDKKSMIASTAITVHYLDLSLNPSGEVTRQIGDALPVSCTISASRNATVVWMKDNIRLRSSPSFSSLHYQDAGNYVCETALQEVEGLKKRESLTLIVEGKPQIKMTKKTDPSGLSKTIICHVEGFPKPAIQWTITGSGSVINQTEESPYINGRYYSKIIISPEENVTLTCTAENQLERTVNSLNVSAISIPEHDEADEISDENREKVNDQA
In words: ELISA, ILT3Fc coated at 2-16 ug/mL, CD166Fc in solution, anti-CD166 detection. In general terms: An ELISA detects its analyte on a solid surface through an enzyme-linked reagent.

In assay [1] the target is T2, full length human CD166 protein (recombinant) (human) (UniProt Q13740).
T2 sequence (looked up): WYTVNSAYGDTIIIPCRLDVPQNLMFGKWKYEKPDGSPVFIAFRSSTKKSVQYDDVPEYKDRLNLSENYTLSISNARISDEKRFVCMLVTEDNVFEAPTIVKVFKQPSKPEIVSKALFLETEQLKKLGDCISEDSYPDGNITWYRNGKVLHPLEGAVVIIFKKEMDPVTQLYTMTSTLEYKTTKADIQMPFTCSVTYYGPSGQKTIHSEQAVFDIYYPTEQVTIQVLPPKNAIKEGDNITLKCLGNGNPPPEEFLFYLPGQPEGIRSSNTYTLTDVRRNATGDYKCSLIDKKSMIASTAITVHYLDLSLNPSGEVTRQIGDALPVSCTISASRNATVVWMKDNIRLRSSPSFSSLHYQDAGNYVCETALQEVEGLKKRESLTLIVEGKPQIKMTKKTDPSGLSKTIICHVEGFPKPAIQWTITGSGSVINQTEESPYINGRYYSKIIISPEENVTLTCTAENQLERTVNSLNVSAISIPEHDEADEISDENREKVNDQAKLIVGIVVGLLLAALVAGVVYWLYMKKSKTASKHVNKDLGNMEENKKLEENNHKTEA
In words: ELISA, ILT3Fc coated at 2-16 ug/mL, full length CD166 in solution, anti-CD166 detection.

In the case of “ILT3Fc (water-soluble recombinant protein: extracellular domain of human ILT3 affixed to the Fc portion of an immunoglobulin) (from UniProt Q8NHJ6 22-259; P01857 104-330) (Fc fusion)”, the binding entry (with human CD166Fc (human); in assay [1]) was “binds” in each case.
